# “And” between values parts separate entries of the source, which are not always exact repeats. Equal values may be shown once. Where a name gives a salt, the structure may show the parent alone. ± gives the standard deviation of the averaged measurements. This is one part of the list. The data scatter; read single values as rough.
# System: Salmonella enterica serovar Typhimurium ST313 D23580
# Test: normalized bacterial growth (OD600 20 h minus 0 h, interquartile-mean normalized) (fraction of plate interquartile mean); higher = more bacterial growth (less inhibition)
# Conditions: LPM (pH 5.8, low phosphate, low Mg2+), concentration: 10 µM, temperature: 37 °C
row,SMILES,normalized bacterial growth
1,Cn1c(=O)c2c(ncn2CC(O)CO)n(C)c1=O (stereo not drawn),1.24
2,CCCc1nc(C(C)(C)O)c(C(=O)OCc2oc(=O)oc2C)n1Cc1ccc(-c2ccccc2-c2nnn[nH]2)cc1,0.847
3,NC(=O)c1cccnc1,1.09
4,NC(=O)C1(N2CCCCC2)CCN(CCCC(=O)c2ccc(F)cc2)CC1,0.881
5,CNC1(C)C2CCC(C2)C1(C)C (stereo not drawn) [Mecamylamine hydrochloride],0.976
6,CCCCCCCCCCCCCCCC[N+](C)(C)C,1.23
7,COc1ccc([C@H]2Oc3cc(OC)cc(OC)c3C[C@H]2O)cc1,0.876
8,CC(C)N(CCC(=O)c1ccc2ccccc2c1)Cc1ccccc1,0.449
9,CC[C@]12CCCN3CCc4c(n(c5ccccc45)[C@@](O)(C(=O)OC)C1)[C@@H]32,1.11 ± 0.097
10,COc1ccc2c(c1)OCC(Cc1ccc(OC)c(OC)c1)C2=O (stereo not drawn),0.831
11,O=c1[nH]c(=O)n([C@H]2C[C@H](O)[C@@H](CO)O2)cc1/C=C/Br [(E)-5-(2-Bromovinyl)-2'-deoxyuridine],0.835
12,CCOc1nc2cccc(C(=O)OC(C)OC(=O)OC3CCCCC3)c2n1Cc1ccc(-c2ccccc2-c2nn[nH]n2)cc1 (stereo not drawn),1.36
13,COc1c(O)cc(O)c2c(=O)cc(-c3ccccc3)oc12,0.961
14,O=c1cc(O)cc(/C=C/c2ccc(O)c(O)c2)o1 [Hispidin],1.17
15,Nc1ccc(S(N)(=O)=O)cc1,1.16
16,Nc1ncnc2c1ncn2[C@H]1C[C@H](O)[C@@H](CO)O1,0.984
17,CC(CCc1ccc(O)cc1)NCCc1ccc(O)c(O)c1 (stereo not drawn) [Dobutamine hydrochloride],0.828
18,CC(CCc1ccc(O)cc1)NCCc1ccc(O)c(O)c1 (stereo not drawn),0.77
19,CCCCC#Cc1nc(N)c2ncn([C@@H]3O[C@H](C(=O)NCC)[C@@H](O)[C@H]3O)c2n1,1.05
20,O=C(O)/C=C/c1ccccc1,1.19
21,N[C@@H](CCC(=O)N[C@@H](CSN=O)C(=O)NCC(=O)O)C(=O)O [S-Nitrosoglutathione],0.81
22,"COC1=C(OC)C(=O)c2ccccc2C1=O [""2,3-Dimethoxy-1,4-naphthoquinone""]",1.01
23,O=C(O)/C=C/C=C/c1ccc2c(c1)OCO2,1.06
24,CC(C)CCC[C@@H](C)[C@H]1CC[C@H]2[C@@H]3CC=C4C[C@@H](O)CC[C@]4(C)[C@H]3CC[C@]12C,0.993

row,SMILES,normalized bacterial growth
1,CCCCCC1C(=O)CCC1CC(=O)O (stereo not drawn),0.893
2,Nc1ccn([C@@H]2O[C@H](CO)[C@@H](O)[C@H]2O)c(=O)n1,1
3,CN(C)CCC(c1ccccc1)c1ccccn1 (stereo not drawn) [Pheniramine maleate],1.03
4,C=CC(C1=CC(=O)C(OC)=CC1=O)c1ccc(O)cc1 (stereo not drawn),0.947
5,C=CCc1ccccc1OCC(O)CNC(C)C (stereo not drawn) [Alprenolol hydrochloride],1.05
6,NC[C@H]1CC[C@H](C(=O)O)CC1,1.06
7,CCCCOc1ccc(CC(=O)NO)cc1,1.21
8,CC(=O)OC(C)C[N+](C)(C)C (stereo not drawn) [Acetyl-beta-methylcholine chloride],1.13
9,CCCCC[C@H](CC(=O)NO)C(=O)N[C@H](C(=O)N1CCC[C@H]1CO)C(C)C [Actinonin],0.734
10,Cc1nc(N=Nc2ccc(S(=O)(=O)O)cc2S(=O)(=O)O)c(COP(=O)(O)O)c(C=O)c1O,0.707
11,Cc1ccc(O)c([C@H](CCN(C(C)C)C(C)C)c2ccccc2)c1,1.28
12,CCN1/C(=C/C(C)=O)Sc2ccc(OC)cc21,1.02
13,"CN(C)C(=O)N=NC(=O)N(C)C [""N,N,N',N'-Tetramethylazodicarboxamide""]",0.891
14,Nc1nc(=O)c2c([nH]1)NCC(CNc1ccc(C(=O)N[C@@H](CCC(=O)O)C(=O)O)cc1)N2C=O (stereo partly drawn),1.1
15,O=C(O)c1cc(=O)c2c(OCC(O)COc3cccc4oc(C(=O)O)cc(=O)c34)cccc2o1,1.28
16,COc1cc2c(cc1OC)[C@H]1[C@@H](C)c3ccc(OC)c(OC)c3CN1CC2,1.05
17,C[C@H](CCC(=O)NCC(=O)O)[C@H]1CC[C@H]2[C@@H]3[C@H](O)C[C@@H]4C[C@H](O)CC[C@]4(C)[C@H]3C[C@H](O)[C@]12C [Glycocholic acid],0.854
18,Clc1ccc(COC(Cn2ccnc2)c2ccc(Cl)cc2Cl)cc1 (stereo not drawn),1.42
19,Clc1ccccc1C(c1ccccc1)(c1ccccc1)n1ccnc1 [Clotrimazole],0.414
20,NC(=O)NO [Hydroxyurea],1.01
21,CO/N=C1\CN(c2nc3c(cc2F)c(=O)c(C(=O)O)cn3C2CC2)CC1CN (stereo not drawn),0.224
22,CC(C)=CCC/C(C)=C/COc1ccc2ccc(=O)oc2c1,0.561
23,COc1cc(CC(=O)O)ccc1O [4-Hydroxy-3-methoxyphenylacetic acid],1.17
24,COc1c(OC)c2occc2c2oc(=O)ccc12,0.791

# Retrieved one by one from the entries so far, 2 records:
row,SMILES,normalized bacterial growth
23,COc1cc(CC(=O)O)ccc1O [4-Hydroxy-3-methoxyphenylacetic acid],1.17
5,C=CCc1ccccc1OCC(O)CNC(C)C (stereo not drawn) [Alprenolol hydrochloride],1.05

# Additional entries follow.

row,SMILES,normalized bacterial growth
1,CN1CCC[C@H]1c1cccnc1,0.984 and 0.76
2,CN1CCC[C@H]1c1cccnc1 [(-)-Nicotine hydrogen tartrate salt],0.897
3,CCCC(C(=O)OCCN(CC)CC)(c1ccccc1)c1ccccc1 [SKF-525A hydrochloride],0.956
4,CC(=O)NCCc1ccc(O)c(O)c1 [N-Acetyldopamine monohydrate],1.12
5,O=P(O)(O)C(O)(Cc1cccnc1)P(=O)(O)O,1.66
6,N[C@@H](Cc1ccc(F)cc1)C(=O)O [p-Fluoro-L-phenylalanine],1.12
7,Nc1nccc2c1ncn2[C@@H]1O[C@H](CO)[C@@H](O)[C@H]1O [3-deazaadenosine],1.03
8,CCN(CC)C(=O)N1CCN(C)CC1,1.13
9,CC[C@]1(O)C[C@@H]2CN(CCc3c([nH]c4ccccc34)[C@@](C(=O)OC)(c3cc4c(cc3OC)N(C)[C@H]3[C@@](O)(C(=O)OC)[C@H](OC(C)=O)[C@]5(CC)C=CCN6CC[C@]43[C@@H]65)C2)C1 [Vinblastine sulfate salt],0.875
10,CC[C@]1(O)C[C@@H]2CN(CCc3c([nH]c4ccccc34)[C@@](C(=O)OC)(c3cc4c(cc3OC)N(C)[C@H]3[C@@](O)(C(=O)OC)[C@H](OC(C)=O)[C@]5(CC)C=CCN6CC[C@]43[C@@H]65)C2)C1,0.862 and 0.816
11,C[C@H]1CC[C@@H](C(C)(C)O)CC2=C1CC[C@@H]2C,0.999
12,CCN(CCCc1ccccc1)CCCc1ccccc1,0.817
13,"Cc1c(C)c2c(c(C)c1O)CC[C@@](C)(CCC[C@H](C)CCC[C@H](C)CCCC(C)C)O2 (racemic) [""Tocopherol (R,S)""]",0.847
14,CCCCC(CC)COC(=O)c1ccccc1O (stereo not drawn),0.909
15,CC(=O)[C@H]1CC[C@H]2[C@@H]3CC=C4C[C@@H](OC(=O)CCC(=O)O)CC[C@]4(C)[C@H]3CC[C@]12C,0.769
16,"CCCCCCCCCCC/C=C\C(C)(C)/C=C\CCCC(=O)O [""7,7-Dimethyl-(5Z,8Z)-eicosadienoic acid""]",1.25
17,CCCCCCCCCCCCC[N+](C)(C)Cc1ccccc1,1.6
18,Cn1c(-c2ccc3c(c2)OCO3)cc(=O)c2ccccc21,0.957
19,O=S(=O)(O)CCS,1.11
20,CCn1cc(C(=O)O)c(=O)c2cnc(N3CCCC3)nc21,1.13
21,Cc1cc2c(cc1Cl)N(C(=O)Nc1cccc3ncccc13)CC2,0.759
22,CC(C)(C)NC[C@H](O)c1ccc(O)c(CO)c1,1.2
23,O[C@H]1[C@H]2c3cc4c(cc3CN3CCC(=C[C@@H]1O)[C@H]23)OCO4,1.1
24,CCCCNC(=O)NS(=O)(=O)c1ccc(C)cc1 [Tolbutamide],1.16

row,SMILES,normalized bacterial growth
1,COc1ccc(-c2oc3ccccc3c(=O)c2O)cc1OC,0.927
2,O=C(O)c1cc(-c2ccc(F)cc2F)ccc1O,1.14
3,CC(=O)[C@H]1CC[C@H]2[C@@H]3C[C@H](C)C4=CC(=O)CC[C@]4(C)[C@H]3[C@@H](O)C[C@]12C [Medrysone],0.832
4,CC(=O)[C@H]1CC[C@H]2[C@@H]3C[C@H](C)C4=CC(=O)CC[C@]4(C)[C@H]3[C@@H](O)C[C@]12C,0.412
5,COC(=O)c1c(C)cc(O)cc1O,0.916
6,C=C1C(=O)O[C@@H]2C[C@@]3(C)CCC[C@H](C)C3=C[C@H]12,0.965
7,COc1ccc(-c2cc(=O)c3ccc(O)cc3o2)cc1,1.13
8,OCc1cc(C(O)CNCCCCCCOCCCCc2ccccc2)ccc1O (stereo not drawn) [Salmeterol],1.13
9,OCc1cc(C(O)CNCCCCCCOCCCCc2ccccc2)ccc1O (stereo not drawn) [Salmeterol xinafoate],1.1
10,C#CCN1C(C)=C(C(=O)OC)C(c2cccc([N+](=O)[O-])c2)C(C(=O)OCC)=C1C (stereo not drawn),0.905
11,N=C(N)NCCC[C@H](N)C(=O)O [L-Arginine],0.872
12,O=c1oc2cc(O)ccc2c2oc3cc(O)ccc3c12,1.02
13,CNCCC(Oc1ccc(C(F)(F)F)cc1)c1ccccc1 (stereo not drawn) [Fluoxetine hydrochloride],0.733
14,C[C@@H](NC(=O)/C(C#N)=C/c1ccc(O)c(O)c1)c1ccccc1 [Tyrphostin AG 527],1.07
15,COc1ccc2cc1Oc1ccc(cc1)C[C@H]1c3cc(c(OC)cc3CCN1C)Oc1c(OC)c(OC)cc3c1[C@H](C2)N(C)CC3,0.759
16,O=C1CCc2cc(OCCCCc3nnnn3C3CCCCC3)ccc2N1 [Cilostazol],1.07
17,CCS(=O)(=O)CCn1c([N+](=O)[O-])cnc1C,0.744
18,COc1cc(OC)c2c(c1)OC(c1ccccc1)CC2=O (stereo not drawn),0.939
19,CCCCOc1cc(C(=O)NCCN(CC)CC)c2ccccc2n1,0.811
20,CCCCOc1cc(C(=O)NCCN(CC)CC)c2ccccc2n1 [Dibucaine],0.917
21,CC[C@H]1OC(=O)[C@H](C)C(=O)[C@H](C)[C@@H](O[C@@H]2O[C@H](C)C[C@H](N(C)C)[C@H]2O)[C@](C)(OC)C[C@@H](C)C(=O)[C@H](C)[C@H]2N(CCCCn3cnc(-c4cccnc4)c3)C(=O)O[C@]12C,0.912

# Quoted from the listing (six entries):
row,SMILES,normalized bacterial growth
1,COc1ccc(-c2oc3ccccc3c(=O)c2O)cc1OC,0.927
2,O=C(O)c1cc(-c2ccc(F)cc2F)ccc1O,1.14
3,CC(=O)[C@H]1CC[C@H]2[C@@H]3C[C@H](C)C4=CC(=O)CC[C@]4(C)[C@H]3[C@@H](O)C[C@]12C [Medrysone],0.832
4,CC(=O)[C@H]1CC[C@H]2[C@@H]3C[C@H](C)C4=CC(=O)CC[C@]4(C)[C@H]3[C@@H](O)C[C@]12C,0.412
5,COC(=O)c1c(C)cc(O)cc1O,0.916
6,C=C1C(=O)O[C@@H]2C[C@@]3(C)CCC[C@H](C)C3=C[C@H]12,0.965

# From the supplement of paper PMC10398353
